Values of other authors, collected in PMC9405973, “Altered Conformational Landscape upon Sensing Guanine Nucleotides in a Disease Mutant of Elongation Factor-like 1 (EFL1) GTPase” (Biomolecules, 2022).

Tested on: wild-type Efl1•Sdo1
Parameters: method as in PMID 30780079
Settings: −Mg^2+, 30 °C; cited from earlier work

Compound | Nconfres (number of residues changing conformation, absolute value) | Nconfrotb (number of routable bonds changing conformation, absolute value) | ΔCpconf | ΔCprb | ΔSb | ΔSconf | ΔSsolv | −ΔASAconf
Nc1nc2c(ncn2[C@@H]2O[C@H](COP(=O)(O)OP(=O)(O)O)[C@@H](O)[C@H]2O)c(=O)[nH]1 [GDP] | 58 | 96 | −610 cal mol^−1 K^−1 | −30 (−30) cal mol^−1 K^−1 | −5 cal mol^−1 K^−1 | −161 cal mol^−1 K^−1 | 164 cal mol^−1 K^−1 | 2738 Å^2
Nc1nc2c(ncn2[C@@H]2O[C@H](COP(=O)(O)OP(=O)(O)OP(=O)(O)O)[C@@H](O)[C@H]2O)c(=O)[nH]1 [GTP] | 8 | 0 | −79 cal mol^−1 K^−1 | −11 (−11) cal mol^−1 K^−1 | 16 cal mol^−1 K^−1 | 0 cal mol^−1 K^−1 | 23 cal mol^−1 K^−1 | 355 Å^2
